Patent US20130040978A1 (priority 2010, published 2013)
Some of these results come from one statement about several compounds together.

By UniProt entry, the sequences of proteins in these tests, tags left out. Where a name states a change or a piece, a line headed by the entry shows the natural chain unless it says otherwise.
UniProt P32745: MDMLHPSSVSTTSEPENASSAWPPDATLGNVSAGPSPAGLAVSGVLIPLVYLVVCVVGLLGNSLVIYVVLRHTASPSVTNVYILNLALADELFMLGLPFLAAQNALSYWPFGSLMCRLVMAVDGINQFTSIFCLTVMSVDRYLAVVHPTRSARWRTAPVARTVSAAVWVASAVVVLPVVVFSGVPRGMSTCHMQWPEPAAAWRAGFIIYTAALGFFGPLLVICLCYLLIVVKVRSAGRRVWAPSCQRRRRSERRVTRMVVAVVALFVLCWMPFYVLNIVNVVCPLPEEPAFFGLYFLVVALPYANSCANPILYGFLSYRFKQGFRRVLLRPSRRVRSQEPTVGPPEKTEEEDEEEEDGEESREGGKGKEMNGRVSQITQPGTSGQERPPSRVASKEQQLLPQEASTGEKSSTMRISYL
UniProt P31391: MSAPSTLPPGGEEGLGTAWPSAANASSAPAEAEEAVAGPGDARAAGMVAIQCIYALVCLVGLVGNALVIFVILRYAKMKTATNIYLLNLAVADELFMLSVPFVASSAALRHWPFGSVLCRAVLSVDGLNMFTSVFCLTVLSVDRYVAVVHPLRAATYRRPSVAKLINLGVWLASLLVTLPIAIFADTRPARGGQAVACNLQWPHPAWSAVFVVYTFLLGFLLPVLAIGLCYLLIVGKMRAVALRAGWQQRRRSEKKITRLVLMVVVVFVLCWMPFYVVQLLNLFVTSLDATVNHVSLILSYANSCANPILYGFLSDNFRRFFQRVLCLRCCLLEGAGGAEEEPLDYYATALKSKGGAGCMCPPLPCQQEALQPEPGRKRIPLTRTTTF
UniProt P30874: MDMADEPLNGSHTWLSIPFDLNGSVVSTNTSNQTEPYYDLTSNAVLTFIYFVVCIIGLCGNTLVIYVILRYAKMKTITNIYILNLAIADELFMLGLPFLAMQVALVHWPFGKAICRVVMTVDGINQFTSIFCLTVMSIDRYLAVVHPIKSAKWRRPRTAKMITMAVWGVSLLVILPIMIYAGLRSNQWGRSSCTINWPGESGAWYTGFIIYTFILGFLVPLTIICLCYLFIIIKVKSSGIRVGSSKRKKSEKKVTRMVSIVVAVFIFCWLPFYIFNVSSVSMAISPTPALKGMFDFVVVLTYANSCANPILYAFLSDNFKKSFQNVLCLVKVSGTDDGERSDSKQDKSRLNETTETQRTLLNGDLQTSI
UniProt P30872: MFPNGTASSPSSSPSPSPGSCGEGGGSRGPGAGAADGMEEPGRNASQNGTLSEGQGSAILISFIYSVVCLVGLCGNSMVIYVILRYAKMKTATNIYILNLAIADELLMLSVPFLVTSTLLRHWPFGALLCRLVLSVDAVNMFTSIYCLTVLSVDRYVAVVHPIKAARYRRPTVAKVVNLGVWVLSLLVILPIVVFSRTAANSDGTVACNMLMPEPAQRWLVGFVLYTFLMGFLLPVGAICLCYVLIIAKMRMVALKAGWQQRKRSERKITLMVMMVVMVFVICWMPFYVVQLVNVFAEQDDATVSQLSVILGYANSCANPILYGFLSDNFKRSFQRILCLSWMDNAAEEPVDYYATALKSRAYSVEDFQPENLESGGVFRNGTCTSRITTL
UniProt P35346: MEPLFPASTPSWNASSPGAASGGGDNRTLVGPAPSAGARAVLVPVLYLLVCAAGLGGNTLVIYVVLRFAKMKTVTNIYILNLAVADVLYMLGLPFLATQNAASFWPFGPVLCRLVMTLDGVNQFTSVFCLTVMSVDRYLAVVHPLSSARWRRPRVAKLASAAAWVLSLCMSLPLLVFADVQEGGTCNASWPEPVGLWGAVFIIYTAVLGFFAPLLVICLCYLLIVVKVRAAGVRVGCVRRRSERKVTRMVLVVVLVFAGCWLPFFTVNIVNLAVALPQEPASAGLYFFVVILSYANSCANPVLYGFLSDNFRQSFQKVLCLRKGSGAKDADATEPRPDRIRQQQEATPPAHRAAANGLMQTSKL

How the values were obtained:
[1] = target: T1, SSTR3 (Homo sapiens, UniProt P32745); test: SSTR3 receptor-ligand binding assay, CHO-K1 cell membranes; conditions: read-out: Ki against SSTR3
T1 construct: expressed in transfected cells

[2] = target: T2, SSTR4 (Homo sapiens, UniProt P31391); test: SSTR4 receptor-ligand binding assay, CHO-K1 cell membranes; conditions: read-out: Ki against SSTR4
T2 construct: expressed in transfected cells

[3] = target: T3, SSTR2 (Homo sapiens, UniProt P30874); test: SSTR2 receptor-ligand binding assay, CHO-K1 cell membranes; conditions: read-out: Ki against SSTR2
T3 construct: expressed in transfected cells

[4] = target: T4, SSTR1 (Homo sapiens, UniProt P30872); test: SSTR1 receptor-ligand binding assay, CHO-K1 cell membranes; conditions: read-out: Ki against SSTR1
T4 construct: expressed in transfected cells

[5] = target: SSTR5 (Homo sapiens, UniProt P35346); test: SSTR5 receptor-ligand binding assay, CHO-K1 cell membranes, 125I-SRIF radioligand; set-up: expressed in transfected cells; conditions: read-out: Ki against SSTR5
Method: The receptor-ligand binding assays of all 5 subtype of SSTRs were performed with membranes isolated from Chinese hamster ovary (CHO)-K1 cells stably expressing the cloned human somatostatin receptors in 96-well format as previous reported. (Yang et al. PNAS 95:10836-10841, (1998), Birzin et al. Anal. Biochem. 307:159-166, (2002)).
The stable cell lines for SSTR1-SSTR5 were developed by stably transfecting with DNA for all five SSTRs using Lipofectamine. Neomycin-resistant clones were selected and maintained in medium containing 400 μg/mL G418 (Rohrer et al. Science 282:737-740, (1998)). Binding assays were performed using (3-125I-Tyr11)-SRIF-14 or (3-125I-Tyrl 1)-SRIF-28 as the radioligand (used at 0.1 nM) and The Packard Unifilter assay plate. The assay buffer consisted of 50 mM TrisHCl (pH 7.8) with 1 mM EGTA, 5 mM MgCl2, leupeptin (10 μg/mL), pepstatin (10 μg/mL), bacitracin (200 μg/mL), and aprotinin (0.5 μg/mL). CHO-K1 cell membranes, radiolabeled somatostatin, and unlabeled test compounds were resuspended or diluted in this assay buffer. Unlabeled test compounds were examined over a range of concentrations from 0.01 nM to 10,000 nM. The Ki values for compounds were determined as described by Cheng and Prusoff Biochem Pharmacol. 22:3099-3108 (1973).

**Q.** How did the Ki [1] turn out when “4-{8-[(4,4-Dimethyl-3,4-dihydro-2-H-chromen-6-yl)methyl]-1-oxa-2,8-diazaspiro[4.5]dec-2-en-3-yl}benzoic acid, TFA salt [Example 2]” was run?
**A.** > 100 nM

**Q.** What about the Ki [2] of the same substance?
**A.** > 100 nM

**Q.** And the Ki [3]?
**A.** > 100 nM

**Q.** And the Ki [4]?
**A.** > 100 nM

**Q.** And the Ki [5]?
**A.** 0.1 to 1000 nM
